Laboratory results taken from patent publication US5674842A, “Growth inhibitory peptide” (Health Research, Incorporated, priority 1994, dated 1997).
Values joined by “and” are separate entries in the source; they are usually repeats but may differ in a detail not shown here. Equal entries are not always repeated. At least one peptide structure holds a part that was inferred or is arguable (an end, a ring closure or a residue). Peptide text beside a SMILES is read from it.

Columns and labels:
[1] = tested on: HCG-stimulated growth of mouse ovary; experiment: In vivo wet weight bioassay, inhibition of HCG-stimulated growth of the ovary; conditions: immature ovary
[2] = tested on: HC-stimulated growth of mouse spleen; experiment: In vivo wet weight bioassay, inhibition of hydrocortisone (HC)-stimulated growth of the spleen; conditions: immature spleen
[3] = tested on: human MCF-7 breast cancer cells; experiment: In vitro MCF-7 focus assay; format: cell-based
[4] = tested on: estrogen-stimulated growth of mouse uterus; experiment: In vivo wet weight bioassay, inhibition of estrogen-stimulated growth of uteri; conditions: immature uterus
[5] = tested on: DES-stimulated growth of mouse uterus; experiment: In vivo wet weight bioassay, inhibition of DES-stimulated growth of uteri; conditions: immature uterus
[6] = Retention of inhibitory activity on storage; format: physicochemical; conditions: lyophilized state

CC[C@H](C)[C@H](NC(=O)[C@H](CS)NC(=O)[C@H](CC(C)C)NC(=O)[C@H](Cc1c[nH]cn1)NC(=O)CNC(=O)[C@@H](NC(=O)[C@@H](NC(=O)[C@@H](NC(=O)[C@H](CC(=O)O)NC(=O)[C@H](C)NC(=O)[C@H](C)NC(=O)CNC(=O)[C@H](CCC(=O)O)NC(=O)CNC(=O)[C@H](CS)NC(=O)[C@H](C)NC(=O)[C@H](CC(C)C)NC(=O)[C@H](CC(C)C)NC(=O)[C@H](CCCCN)NC(=O)[C@H](CC(=O)O)NC(=O)[C@H](CCC(=O)O)NC(=O)[C@H](CO)NC(=O)[C@@H](N)CC(C)C)[C@@H](C)CC)[C@@H](C)CC)[C@@H](C)CC)C(=O)N[C@@H](CCCNC(=N)N)C(=O)N[C@@H](Cc1c[nH]cn1)C(=O)N[C@@H](CCC(=O)O)C(=O)N[C@@H](CCSC)C(=O)N[C@H](C(=O)N1CCC[C@H]1C(=O)N[C@H](C(=O)N[C@@H](CC(N)=O)C(=O)N1CCC[C@H]1C(=O)NCC(=O)N[C@H](C(=O)O)C(C)C)C(C)C)[C@@H](C)O [GIP] (H-LSEDKLLACGEGAADIIIGHLCIRHEMTPVNPGV-OH)
most effective dose (produced 100% growth inhibition) [1]: 1 μg/mouse | most effective dose (produced 100% growth inhibition) [2]: 1.0 μg/mouse | maximum inhibition of DF5 induced foci development ([3]; GIP concentration range 10^-10 to 10^-13 M, estrogenic DF5 medium): 74% | Percent Foci Inhibition ([3]; MCF-7 cell culture (experiment 2b), added human AFP, peptide molarity 10^-12): 40% | Percent Foci Inhibition ([3]; MCF-7 cell culture, peptide molarity 10^-11 -10^-13, 1x10^-9 M 17β-estradiol, 14 days): 60-74% and 50-60% | concentration at which estrogenic foci induction starts ([3]; nonestrogenic DC5 medium, dose responsive): 10^-8 M | most effective dose to produce 30-40% growth inhibition [4]: 50 ng/mouse | potency relative to the full-length transformed AFP molecule [4]: 5 fold | most effective dose (produced 27% growth inhibition) [5]: 10 ng/mouse | time inhibitory activity is retained [6]: ≥ 12 months
